# Results are given in words; binding and its absence hold for the method and conditions named. In cells and extracts the contact can be indirect.
# Protein sequences, listed by entry. Tags and fused reporters are not part of them.
# UniProt Q9HD67: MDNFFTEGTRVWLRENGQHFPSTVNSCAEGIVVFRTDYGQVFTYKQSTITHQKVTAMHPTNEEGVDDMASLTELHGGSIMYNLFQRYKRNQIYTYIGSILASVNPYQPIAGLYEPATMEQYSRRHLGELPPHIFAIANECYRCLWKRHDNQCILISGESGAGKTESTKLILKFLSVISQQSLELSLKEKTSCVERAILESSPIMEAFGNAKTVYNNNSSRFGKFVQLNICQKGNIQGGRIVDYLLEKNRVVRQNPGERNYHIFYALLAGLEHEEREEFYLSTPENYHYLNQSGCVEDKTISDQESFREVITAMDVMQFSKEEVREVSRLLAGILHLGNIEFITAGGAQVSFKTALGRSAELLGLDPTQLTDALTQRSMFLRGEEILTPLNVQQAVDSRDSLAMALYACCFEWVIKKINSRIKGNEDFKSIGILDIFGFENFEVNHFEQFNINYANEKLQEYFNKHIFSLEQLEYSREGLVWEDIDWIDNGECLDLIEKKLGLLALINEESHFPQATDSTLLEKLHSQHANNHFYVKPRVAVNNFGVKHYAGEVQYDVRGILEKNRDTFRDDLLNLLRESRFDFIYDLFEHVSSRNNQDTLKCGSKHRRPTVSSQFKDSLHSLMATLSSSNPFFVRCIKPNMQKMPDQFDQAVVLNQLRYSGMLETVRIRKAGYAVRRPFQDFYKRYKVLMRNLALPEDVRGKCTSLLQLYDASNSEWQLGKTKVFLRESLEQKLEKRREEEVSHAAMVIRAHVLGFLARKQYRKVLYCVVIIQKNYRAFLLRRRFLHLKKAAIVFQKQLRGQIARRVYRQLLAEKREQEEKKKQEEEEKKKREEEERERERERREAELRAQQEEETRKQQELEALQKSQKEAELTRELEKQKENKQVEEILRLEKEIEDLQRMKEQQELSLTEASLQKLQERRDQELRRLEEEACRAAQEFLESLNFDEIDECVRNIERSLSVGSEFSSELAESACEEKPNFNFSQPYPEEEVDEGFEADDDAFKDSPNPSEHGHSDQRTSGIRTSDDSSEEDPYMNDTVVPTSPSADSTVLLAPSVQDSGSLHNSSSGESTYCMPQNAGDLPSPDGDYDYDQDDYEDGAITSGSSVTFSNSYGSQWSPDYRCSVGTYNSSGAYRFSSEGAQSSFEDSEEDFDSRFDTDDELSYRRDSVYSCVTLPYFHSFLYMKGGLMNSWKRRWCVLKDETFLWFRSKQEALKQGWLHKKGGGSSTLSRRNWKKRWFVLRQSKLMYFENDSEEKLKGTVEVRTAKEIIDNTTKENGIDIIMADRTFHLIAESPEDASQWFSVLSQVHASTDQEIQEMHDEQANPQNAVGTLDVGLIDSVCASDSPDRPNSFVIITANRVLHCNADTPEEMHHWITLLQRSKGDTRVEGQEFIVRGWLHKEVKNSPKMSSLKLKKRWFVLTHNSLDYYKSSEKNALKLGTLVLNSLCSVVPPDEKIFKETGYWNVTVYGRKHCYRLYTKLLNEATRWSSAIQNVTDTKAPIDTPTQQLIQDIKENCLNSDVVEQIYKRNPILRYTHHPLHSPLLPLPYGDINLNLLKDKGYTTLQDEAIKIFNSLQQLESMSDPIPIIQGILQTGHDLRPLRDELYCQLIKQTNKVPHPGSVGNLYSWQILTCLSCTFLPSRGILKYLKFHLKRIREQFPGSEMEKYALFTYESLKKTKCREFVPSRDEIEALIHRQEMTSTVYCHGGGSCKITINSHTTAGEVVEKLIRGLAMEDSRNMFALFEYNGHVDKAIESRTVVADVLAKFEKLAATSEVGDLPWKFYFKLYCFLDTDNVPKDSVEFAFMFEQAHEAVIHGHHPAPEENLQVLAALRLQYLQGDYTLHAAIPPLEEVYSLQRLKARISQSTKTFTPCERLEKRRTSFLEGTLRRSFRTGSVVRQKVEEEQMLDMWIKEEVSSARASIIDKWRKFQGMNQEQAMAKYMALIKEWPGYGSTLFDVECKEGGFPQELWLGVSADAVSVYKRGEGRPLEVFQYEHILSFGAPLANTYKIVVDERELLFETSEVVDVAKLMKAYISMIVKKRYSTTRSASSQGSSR
# B1: Cadherin-11 (CDH11) (protein, UniProt P55287 54-796)
# chain: GWVWNQFFVIEEYTGPDPVLVGRLHSDIDSGDGNIKYILSGEGAGTIFVIDDKSGNIHATKTLDREERAQYTLMAQAVDRDTNRPLEPPSEFIVKVQDINDNPPEFLHETYHANVPERSNVGTSVIQVTASDADDPTYGNSAKLVYSILEGQPYFSVEAQTGIIRTALPNMDREAKEEYHVVIQAKDMGGHMGGLSGTTKVTITLTDVNDNPPKFPQSVYQMSVSEAAVPGEEVGRVKAKDPDIGENGLVTYNIVDGDGMESFEITTDYETQEGVIKLKKPVDFETKRAYSLKVEAANVHIDPKFISNGPFKDTVTVKISVEDADEPPMFLAPSYIHEVQENAAAGTVVGRVHAKDPDAANSPIRYSIDRHTDLDRFFTINPEDGFIKTTKPLDREETAWLNITVFAAEIHNRHQEAKVPVAIRVLDVNDNAPKFAAPYEGFICESDQTKPLSNQPIVTISADDKDDTANGPRFIFSLPPEIIHNPNFTVRDNRDNTAGVYARRGGFSRQKQDLYLLPIVISDGGIPPMSSTNTLTIKVCGCDVNGALLSCNAEAYILNAGLSTGALIAILACIVILLVIVVLFVTLRRQKKEPLIVFEEEDVRENIITYDDEGGGEEDTEAFDIATLQNPDGINGFIPRKDIKPEYQYMPRPGLRPAPNSVDVDDFINTRIQEADNDPTAPPYDSIQIYGYEGRGSVAGSLSSLESATTDSDLDYDYLQNWGPRFKKLADLYGSKDTFDDDS
# Target: myosin-X (Myo10) (human (endogenous in primary trabecular meshwork cells)) (UniProt Q9HD67)
# Test: co-IP; Myosin-10 polyclonal antibody on protein A/G magnetic beads, incubated with TM cell RIPA lysates with 10 mM MgCl2 overnight at 4°C, washed with PBST; blots probed with integrin β1, α5, αvβ3, αvβ5 or CDH11 antibodies
binder,measurement,value
B1,binding,no binding

# — paper PMC9100841
